Values from PubChem BioAssay AID1259308 (NCATS, 2017)

Assay: 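Genes whose loss raises luciferase production in HEK293 cells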 (primary screen)
Cell system: human HEK293 embryonic kidney cells stably expressing firefly luciferase (HEK-CMV-Luc2-Hygro)
Knock-down reagent: single siRNA against human genes, 0.8 pmol siRNA per well
Time to read-out: 72 h
Detection: 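Reporter luminescence and viable-cell signal on separate replicate plates, given as percent of non-targeting control and median/MAD z-scores, plus per-cell luciferase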
Scale: total luciferase, z-score and total luciferase, % of control: higher = more reporter protein produced; luciferase per cell, z-score: higher = more reporter output per viable cell; viable cells, % of control: higher = more viable cells
Hit rule: 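An siRNA counts as active if its total luciferase robust z-score exceeds 3; genes with two or more such siRNAs out of three were retested with fresh siRNAs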
Calls: active = raised luciferase; inactive = no rise
The deposit covers about 59,000 reagents; this is a part drawn at random. Over the whole deposit, about 1,510 (2.6%) got an active call. 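Calls use total luciferase alone and ignore viability, so some active siRNAs may act by altering cell number.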 Reagents against one gene are numbered here. No sequences are given here.

no.	gene	reagent no.	total luciferase, z-score	total luciferase, % of control	luciferase per cell, z-score	viable cells, % of control	activity call
1	SLC25A34	1	-0.00419	81.8	-0.348	100	inactive
2	SLC25A34	2	1.16	105	1.22	85.1	inactive
3	SLC25A34	3	0.529	92.4	0.0366	102	inactive
4	VPS18	1	-0.205	77.8	-0.348	95.3	inactive
5	VPS18	2	-2.31	35.9	-2.67	81	inactive
6	VPS18	3	1.67	115	1.77	80.6	inactive
7	TOX	1	-1.2	58	-1.65	100	inactive
8	TOX	2	0.459	91	0.27	94.7	inactive
9	TOX	3	-1.29	56.3	-1.79	101	inactive
10	FAM135B	1	0.131	84.5	0.232	88.8	inactive
11	FAM135B	2	-0.586	70.2	-0.172	82.1	inactive
12	FAM135B	3	0.946	101	0.89	89	inactive
13	APH1B	1	2	122	1.09	102	inactive
14	APH1B	2	-0.922	63.6	-0.346	77.8	inactive
15	APH1B	3	0.113	84.1	0.288	87.1	inactive
16	FXN	1	1.58	113	1.64	82.2	inactive
17	FXN	2	-2.23	37.5	-2.34	77.6	inactive
18	FXN	3	-0.0624	80.6	-0.0834	92.1	inactive
19	ALG2	1	-1.17	58.6	0.301	60.5	inactive
20	ALG2	2	0.835	98.5	0.58	94.5	inactive
21	ALG2	3	-0.693	68.1	-0.79	93.7	inactive
22	ALG1L8P	1	-0.0967	80	0.894	70.6	inactive
23	ALG1L8P	2	-1.98	42.5	-1.08	63.2	inactive
24	ALG1L8P	3	1.15	105	1.11	87.4	inactive
25	DTWD2	1	1.64	115	1.41	88.4	inactive
26	DTWD2	2	0.702	95.8	0.514	93.5	inactive
27	DTWD2	3	0.147	84.8	0.119	91.9	inactive
28	ZC3H12A	1	1.34	108	0.956	94.3	inactive
29	ZC3H12A	2	-1.43	53.4	-1.29	83.8	inactive
30	ZC3H12A	3	0.0943	83.8	-0.329	102	inactive
31	RORB	1	2.14	124	1.44	95.2	inactive
32	RORB	2	0.405	89.9	0.796	81.5	inactive
33	RORB	3	-0.0654	80.6	0.208	85.2	inactive

Continued; the last 2 above are carried over.
no.	gene	reagent no.	total luciferase, z-score	total luciferase, % of control	luciferase per cell, z-score	viable cells, % of control	activity call
32	RORB	2	0.405	89.9	0.796	81.5	inactive
33	RORB	3	-0.0654	80.6	0.208	85.2	inactive
34	RBM7	1	3.42	150	2.28	91.9	active
35	RBM7	2	0.43	90.4	0.498	88.6	inactive
36	RBM7	3	0.414	90.1	0.457	89.3	inactive
37	IL2	1	-0.378	74.4	0.113	80.7	inactive
38	IL2	2	-0.141	79.1	0.122	85.6	inactive
39	IL2	3	1.46	111	1.05	94	inactive
40	TLCD4	1	-0.433	73.3	0.178	78.1	inactive
41	TLCD4	2	1.05	103	0.695	95.7	inactive
42	TLCD4	3	-1.23	57.4	-1.13	86.3	inactive
43	CENATAC	1	1.02	102	0.554	98.8	inactive
44	CENATAC	2	-0.66	68.8	-0.979	99.4	inactive
45	CENATAC	3	-0.342	75.1	-1.08	112	inactive
46	PHACTR1	1	-1.25	57.1	-2.02	109	inactive
47	PHACTR1	2	-0.167	78.6	-0.227	93.2	inactive
48	PHACTR1	3	1.23	106	1.73	75.3	inactive
49	DBH	1	-1.25	57	-1.34	90.5	inactive
50	DBH	2	-0.527	71.4	-0.212	84.4	inactive
51	DBH	3	-0.578	70.4	-0.0784	80.3	inactive
52	CHCHD7	1	-1.05	61	-1.28	95.5	inactive
53	CHCHD7	2	0.361	89.1	-0.262	107	inactive
54	CHCHD7	3	-0.437	73.2	-0.543	94.4	inactive
55	WRAP53	1	1.11	104	1.18	85	inactive
56	WRAP53	2	-2.34	35.4	-2.59	78.2	inactive
57	WRAP53	3	-1.05	61	-1.01	88.9	inactive
